PubChem BioAssay AID504774 – Drosophila RNAi Screening Center – 2011
The deposit covers about 23,000 reagents; below is a random part of those with a known target gene and a result. 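Values are quantile-normalised luminescence on an arbitrary scale; higher means more cells surviving MMS.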 A plus sign joins genes that one reagent is predicted to hit. No sequences are given here.

- Purpose: 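Fly genes whose loss alters survival after alkylation damage to DNA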 (primary screen)
- Cell system: Drosophila Kc167 cells
- Reagents: long dsRNA against Drosophila genes, about 0.25 µg dsRNA per well
- Timing: about 6 days: 3 days knock-down, then 3 days with or without MMS
- Challenge: methyl methanesulphonate 0.004% (w/v) for 3 days after knock-down
- Measurement: 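ATP-dependent luminescence as a measure of live cells in MMS-exposed wells, quantile normalised within each plate, with replicate values also given as a mean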
- Reading the numbers: mean viability with MMS and viability with MMS: higher = more surviving cells after MMS

| Gene | amplicon | mean viability with MMS | viability with MMS, replicate 1 | viability with MMS, replicate 2 |
| --- | --- | --- | --- | --- |
| if | DRSC20341 | 3.44e6 | 3.91e6 | 3.85e6 |
| Su(P) | DRSC11291 | 3.53e6 | 4.03e6 | 3.98e6 |
| CG6282 | DRSC10616 | 3.59e6 | 4.03e6 | 4.11e6 |
| CG13217 | DRSC06339 | 3.24e6 | 2.99e6 | 3.92e6 |
| Sec13 | DRSC14144 | 3.36e6 | 3.82e6 | 3.83e6 |
| Ir60b | DRSC04217 | 3.61e6 | 4.03e6 | 4.17e6 |
| CG15269 | DRSC01942 | 3.46e6 | 3.97e6 | 3.89e6 |
| CG13427 | DRSC06389 | 3.41e6 | 3.97e6 | 3.71e6 |
| tj | DRSC02011 | 3.45e6 | 3.91e6 | 3.89e6 |
| EbpIII | DRSC04638 | 3.65e6 | 4.13e6 | 4.14e6 |
| Osi8 | DRSC12277 | 3.44e6 | 3.95e6 | 3.87e6 |
| EMC4 | DRSC11638 | 3.49e6 | 4.00e6 | 3.89e6 |
| Hrb27C | DRSC03347 | 3.42e6 | 3.70e6 | 3.95e6 |
| wtrw | DRSC14241 | 3.46e6 | 3.97e6 | 3.86e6 |
| wtrw | DRSC15278 | 3.64e6 | 4.02e6 | 3.99e6 |
| Pgd | DRSC18697 | 3.52e6 | 4.09e6 | 3.91e6 |
| CG7536 | DRSC20050 | 3.73e6 | 4.49e6 | 4.01e6 |
| CG4537 | DRSC02756 | 3.63e6 | 4.36e6 | 3.87e6 |
| CG14280 | DRSC14761 | 3.56e6 | 4.00e6 | 4.07e6 |
| CG13299 | DRSC09973 | 3.47e6 | 3.98e6 | 3.89e6 |
| l(2)10685 | DRSC00665 | 3.69e6 | 4.10e6 | 4.31e6 |
| CG10936 | DRSC05669 | 3.57e6 | 4.03e6 | 4.04e6 |
| CG10936 | DRSC05670 | 3.67e6 | 4.20e6 | 4.08e6 |
| CG10936 | DRSC06018 | 3.49e6 | 3.95e6 | 3.96e6 |
| CG9547 | DRSC03260 | 3.43e6 | 4.00e6 | 3.68e6 |
| rst | DRSC17243 | 3.54e6 | 4.00e6 | 4.03e6 |
| rst | DRSC18828 | 3.48e6 | 4.04e6 | 3.85e6 |
| eEFSec | DRSC04571 | 3.54e6 | 4.02e6 | 4.00e6 |
| PpY-55A | DRSC07513 | 3.40e6 | 3.85e6 | 3.82e6 |
| PpY-55A | DRSC23328 | 3.65e6 | 4.16e6 | 4.12e6 |
| CG3803 | DRSC04420 | 3.50e6 | 4.02e6 | 3.90e6 |
| SA1 | DRSC03424 | 3.47e6 | 3.89e6 | 3.90e6 |
| Rnb | DRSC16325 | 3.37e6 | 3.87e6 | 3.80e6 |
| betaGlu | DRSC15419 | 3.54e6 | 4.14e6 | 3.91e6 |
| COX6AL | DRSC21454 | 3.36e6 | 3.86e6 | 3.90e6 |
| disco-r | DRSC20173 | 3.70e6 | 4.11e6 | 4.21e6 |
| disco-r | DRSC20174 | 3.56e6 | 4.03e6 | 4.05e6 |
| CG18231 | DRSC10307 | 3.56e6 | 4.04e6 | 4.04e6 |
| PolrMT | DRSC00660 | 3.62e6 | 4.18e6 | 4.05e6 |
| MESR6 | DRSC10720 | 3.55e6 | 4.07e6 | 3.98e6 |
| Doc2 | DRSC22716 | 3.35e6 | 3.90e6 | 3.84e6 |
| Plzf | DRSC02994 | 3.55e6 | 3.99e6 | 4.07e6 |
| CG32440 | DRSC11480 | 3.74e6 | 4.23e6 | 4.23e6 |
| BaraA1 + BaraA2 | DRSC05417 | 3.72e6 | 4.15e6 | 4.16e6 |
| CG17029 | DRSC10240 | 3.67e6 | 4.15e6 | 4.12e6 |
| Nf1 | DRSC16758 | 3.59e6 | 4.12e6 | 4.01e6 |
| ppk31 | DRSC13811 | 3.64e6 | 4.05e6 | 4.17e6 |
| CG11562 | DRSC00316 | 3.50e6 | 3.97e6 | 3.96e6 |
| aust | DRSC02558 | 3.59e6 | 3.96e6 | 4.18e6 |
| HLH54F | DRSC07438 | 3.60e6 | 4.09e6 | 4.07e6 |
| CG12617 | DRSC02176 | 3.52e6 | 3.86e6 | 4.12e6 |
| Mrgn1 | DRSC20223 | 3.41e6 | 3.94e6 | 3.94e6 |
| Osi13 | DRSC12281 | 3.36e6 | 3.83e6 | 3.83e6 |
| CG31777 | DRSC00201 | 3.65e6 | 4.09e6 | 4.19e6 |
| CG13692 | DRSC00361 | 3.55e6 | 3.91e6 | 4.14e6 |
| NANS | DRSC15743 | 3.66e6 | 4.10e6 | 4.11e6 |
| Liprin-gamma | DRSC04093 | 2.08e6 | 4.27e6 | – |
| CG5445 | DRSC19943 | 3.25e6 | 3.66e6 | 3.57e6 |
| CG5445 | DRSC23180 | 3.65e6 | 4.08e6 | 4.20e6 |
| olf413 | DRSC11543 | 4.02e6 | 4.83e6 | 4.36e6 |
| olf413 | DRSC11679 | 3.57e6 | 4.75e6 | 4.26e6 |
| olf413 | DRSC11721 | 3.69e6 | 4.14e6 | 4.15e6 |
| olf413 | DRSC11833 | 3.62e6 | 3.71e6 | 4.18e6 |
| kraken | DRSC00824 | 3.55e6 | 4.03e6 | 4.04e6 |
| NimA | DRSC01353 | 3.60e6 | 4.12e6 | 4.01e6 |
| NimA | DRSC22170 | 3.53e6 | 3.99e6 | 4.01e6 |
| CG32750 | DRSC18848 | 3.58e6 | 4.05e6 | 4.07e6 |
| DIP-zeta | DRSC02203 | 3.71e6 | 4.33e6 | 4.07e6 |
| DIP-zeta | DRSC02204 | 3.62e6 | 3.98e6 | 3.97e6 |
| DIP-zeta | DRSC02205 | 3.62e6 | 4.02e6 | 4.18e6 |

9 entries from above in another layout:
rst [DRSC17243]
- mean viability with MMS: 3.54e6
- viability with MMS, replicate 1: 4.00e6
- viability with MMS, replicate 2: 4.03e6

rst [DRSC18828]
- mean viability with MMS: 3.48e6
- viability with MMS, replicate 1: 4.04e6
- viability with MMS, replicate 2: 3.85e6

eEFSec [DRSC04571]
- mean viability with MMS: 3.54e6
- viability with MMS, replicate 1: 4.02e6
- viability with MMS, replicate 2: 4.00e6

PpY-55A [DRSC07513]
- mean viability with MMS: 3.40e6
- viability with MMS, replicate 1: 3.85e6
- viability with MMS, replicate 2: 3.82e6

PpY-55A [DRSC23328]
- mean viability with MMS: 3.65e6
- viability with MMS, replicate 1: 4.16e6
- viability with MMS, replicate 2: 4.12e6

CG3803 [DRSC04420]
- mean viability with MMS: 3.50e6
- viability with MMS, replicate 1: 4.02e6
- viability with MMS, replicate 2: 3.90e6

SA1 [DRSC03424]
- mean viability with MMS: 3.47e6
- viability with MMS, replicate 1: 3.89e6
- viability with MMS, replicate 2: 3.90e6

Rnb [DRSC16325]
- mean viability with MMS: 3.37e6
- viability with MMS, replicate 1: 3.87e6
- viability with MMS, replicate 2: 3.80e6

betaGlu [DRSC15419]
- mean viability with MMS: 3.54e6
- viability with MMS, replicate 1: 4.14e6
- viability with MMS, replicate 2: 3.91e6
